{"sequences": {"note": "Chains of the proteins cited; added tags and fusions are not shown.", "UniProt Q9QUR7": "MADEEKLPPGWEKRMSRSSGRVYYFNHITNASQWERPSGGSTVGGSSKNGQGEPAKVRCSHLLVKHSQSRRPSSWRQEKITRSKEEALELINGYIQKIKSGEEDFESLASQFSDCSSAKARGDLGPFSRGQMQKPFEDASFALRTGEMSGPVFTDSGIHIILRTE"}, "source": "paper PMC12005807", "target": "T1, Flag-tagged Gbp2 (UniProt Q9Z0E6)", "T1 sequence": "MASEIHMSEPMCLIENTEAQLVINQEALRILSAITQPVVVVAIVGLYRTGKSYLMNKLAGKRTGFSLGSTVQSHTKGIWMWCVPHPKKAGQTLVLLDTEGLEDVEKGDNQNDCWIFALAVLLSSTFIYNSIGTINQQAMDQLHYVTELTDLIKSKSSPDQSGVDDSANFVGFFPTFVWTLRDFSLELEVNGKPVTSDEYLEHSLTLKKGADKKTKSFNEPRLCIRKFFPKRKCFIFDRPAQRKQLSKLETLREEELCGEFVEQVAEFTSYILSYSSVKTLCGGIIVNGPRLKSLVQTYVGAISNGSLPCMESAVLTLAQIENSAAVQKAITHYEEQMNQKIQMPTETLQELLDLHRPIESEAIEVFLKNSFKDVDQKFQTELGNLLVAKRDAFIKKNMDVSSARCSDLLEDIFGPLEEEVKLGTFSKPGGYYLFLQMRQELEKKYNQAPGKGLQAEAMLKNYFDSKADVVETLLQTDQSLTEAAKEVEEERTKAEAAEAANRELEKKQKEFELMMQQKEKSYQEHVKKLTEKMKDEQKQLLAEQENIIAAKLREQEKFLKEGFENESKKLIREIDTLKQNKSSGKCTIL", "assay": "affinity purification with mass spectrometry; co-immunoprecipitation of Gbp2 followed by proteomic profiling; proteins ranked by peptide-spectrum matches", "note": "Results are given in words; binding and its absence hold for the method and conditions named. Binding seen in cells or lysates may run through a third protein. Here binding means that the protein was enriched with, or labelled near, the bait; the list need not be complete. Tags and fused reporters may be left off the sequences shown."}
{"substance": "Pin1 (from UniProt Q9QUR7 1-165)", "values": [{"measurement": "binding", "result": "binds"}]}
